Test system: rat liver microsomes
Test: Metabolism by liver microsomal enzymes
Type: in vitro ADME
Conditions: rat liver microsomes 0.5 mg protein/ml, 10 μM, 1 hour, 37°C, NADPH regeneration system; ± SEM
Description: Ethical clearance was obtained from Animal Ethics Committee of Indian Institute of Chemical Biology for use of animals for the present study. […] The % stability (% compound remaining after metabolism) was calculated as follows:
(3) % Compound remaining=100×(peak area of 1 hour sampl/peak area of 0 hour sample)
For 0 hour sample, the compound was added after addition of ice-cold acetonitrile and then vortexed, followed by centrifugation as mentioned above.

Structure (SMILES): CC(C)NCC(O)COc1ccc(CC(N)=O)cc1 (stereo not shown) [Atenolol]
- % Parent compound remaining, result: 90.33 ± 1.30%

From paper PMC2875737, “Determination of drug-like properties of a novel antileishmanial compound: In vitro absorption, distribution, metabolism, and excretion studies” (Indian Journal of Pharmacology, 2009)
